Test results from PubChem BioAssay AID504444 (National Center for Advancing Translational Sciences (NCATS), 2011).
About 7,500 (2.1%) of roughly 360,000 compounds were called active. The shares of active, inactive and inconclusive entries below differ from those in the screen. Calls come from the whole dose curve; as a rule, active = well fitted inhibition curve with a large enough effect; inconclusive = small, poorly fitted or top-dose-only effect, or effect the other way; inactive = flat fitted curve, though single readings scatter. Potencies of inconclusive entries are doubtful fits and often do not repeat.
% is set by controls: 0 for no effect and ±100 for the full control effect; potency is the fitted concentration of half-maximal effect.

Experiment: Nrf2 qHTS screen for inhibitors; note: nearly all actives have a fitted effect of over 60% in size
Settings: A549 ARE-Fluc reporter, luciferase luminescence, 18-24 h; activity change, negative = inhibition: at 46 µM (top of the series)
How it was run: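 A549 ARE_Fluc cells (5000/well, 5% FBS OPTI-MEM) pre-incubated 2 h, then treated with compounds 18-24 h at 37C/5% CO2 in concentration-response. CellTiter-Fluor viability read first; BugLite luciferase luminescence after 15 min at room temperature gives Nrf2 activity.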
For `Cn1c(Cc2ccccc2)nnc1SCc1nc2ccccc2c(=O)[nH]1`, the Potency was inconclusive: 5.8 µM [falling, partial curve]. In the case of `Cc1ccc(S(=O)(=O)N2CCCCC2)cc1NC(=O)Cn1cnc2c1c(=O)n(C)c(=O)n2C`, the Potency is reported as inconclusive: 25.9 µM [falling, partial curve, poor fit]. With `CC(=O)c1cccc(CN2CCCCC2C(=O)Nc2ccc(Oc3ccccc3)nc2)c1` (stereo unspecified) the Potency was inconclusive: 2.06 µM [falling, full curve, poor fit]. In the case of `Cc1cc(C)n2nc(C(=O)Nc3ccn(Cc4ccccc4C)n3)cc2n1`, the Potency is reported as inconclusive: 16.4 µM [falling, partial curve, poor fit]. In the case of `O=C(COC(=O)/C=C/c1cccc(F)c1)NC(=O)NCc1ccccc1`, the Potency is reported as inconclusive: 29.1 µM [falling, partial curve, poor fit]. For `CN1CCN(C2=C(Cl)C(=O)N(C3CCCCC3)C2=O)CC1`, the “activity change, negative = inhibition” value was inactive: -4.33%. With `COc1cccc(/C=C2/Sc3ccc(C(=O)NCCN4CCCC4)cc3NC2=O)c1` the “activity change, negative = inhibition” value was inactive: -5.36%. In the case of `Cc1ccc(Cl)cc1NC(=O)Cn1c(=O)c(CNc2ccccc2)cc2cc3c(cc21)OCCO3`, the Potency is reported as inconclusive: 6.51 µM [activator, partial curve, poor fit]. With `COc1ccc(-c2cc(C(F)(F)F)n3nc(C(=O)Nc4c(C)n(C)n(-c5ccccc5)c4=O)c(Cl)c3n2)cc1` the Potency was inconclusive: 18.4 µM [falling, single point]. In the case of `COc1cc(NC(=O)CSCc2cnn(-c3ccccc3)c2-n2cccc2)cc(OC)c1`, the Potency is reported as inconclusive: 32.6 µM [falling, single point]. For `COc1ccc(C(=O)OCCN2CCOCC2)cc1OC`, the Potency was inconclusive: 32.6 µM [activator, single point]. For `NS(=O)(=O)c1ccc(NC(=S)Nc2cc(Cl)c(Cl)cc2Cl)cc1`, the “activity change, negative = inhibition” value was inactive: 7.09%. For `Cc1ccc(S(=O)(=O)N(CCCO)CC(O)CON=C2c3ccccc3-c3ccccc32)cc1` (stereo unspecified), the Potency was inconclusive: 29.1 µM [falling, single point]. In the case of `O=C(Nc1ccc(F)c(F)c1)C1CCN(S(=O)(=O)c2cccs2)CC1`, the Potency is reported as inconclusive: 25.9 µM [falling, single point]. For `Cn1ccnc1-c1nnn(-c2ccc(F)cc2)n1`, the Potency was inconclusive: 16.4 µM [activator, partial curve]. In the case of `CC(NC(=O)COc1ccc(/C=N/NC(=O)C(=O)Nc2ccccc2Br)cc1)c1ccccc1` (stereo unspecified), the Potency is reported as inconclusive: 29.1 µM [falling, single point]. With `O=C(CN(C(=O)c1csnn1)c1ccccc1Cl)NCCc1ccccc1` the Potency was inconclusive: 16.4 µM [falling, partial curve, poor fit]. For `Cc1ccc(NS(=O)(=O)c2cccc(C(=O)Nc3cc(C)on3)c2)cc1`, the Potency was inconclusive: 23.1 µM [falling, partial curve]. For `CCn1ccc(C(=O)Nc2ccc(N(C)C(C)=O)cc2)n1`, the Potency was inconclusive: 7.31 µM [activator, partial curve]. In the case of `Cc1cc2c(s1)c1cnn(Cc3ccc(S(C)(=O)=O)cc3)c(=O)c1n2C`, the Potency is reported as active: 20.6 µM. With `O=C1NC2(CCCCC2)C(=O)N1Cc1cccc(C(F)(F)F)c1` the “activity change, negative = inhibition” value was inactive: -3.42%. In the case of `CCOC(=O)C(=O)N1CCC(C(=O)OC)CC1`, the “activity change, negative = inhibition” value is reported as inactive: 13.7%. In the case of `Cc1c(NC(=O)c2ccc(CN3CCc4ccccc4C3)cc2)c(=O)n(-c2ccccc2)n1C`, the Potency is reported as inconclusive: 9.2 µM [falling, partial curve]. In the case of `CCc1nc(SCC(=O)N2c3ccccc3CC2C)c2c(C)c(C)sc2n1` (stereo unspecified), the Potency is reported as inconclusive: 3.26 µM [activator, partial curve]. For `Cc1nnc(N/N=C/c2c(Cl)cccc2Cl)n1N`, the Potency was inconclusive: 20.6 µM [falling, single point]. With `CCOC(=O)C1CCN(C(=O)CCNC(=O)c2cc(OC)c(OC)c(OC)c2)CC1` the “activity change, negative = inhibition” value was inactive: 1.46%. With `Cc1ccc(C)c(S(=O)(=O)N2CCCCC2CCNC(=O)C(=O)NCc2ccco2)c1` (stereo unspecified) the Potency was inconclusive: 29.1 µM [falling, single point]. In the case of `Cc1[nH]c(-c2ccc(F)cc2)cc1C(=O)N1CCN(c2ccccc2)CC1`, the Potency is reported as inconclusive: 29.1 µM [falling, single point]. In the case of `Cc1noc(C)c1NC(=O)N(C)C[C@H]1Oc2ccc(NC(=O)C3CC3)cc2C(=O)N([C@H](C)CO)C[C@@H]1C`, the Potency is reported as inconclusive: 32.6 µM [activator, partial curve, poor fit]. In the case of `CCC(C)n1ncn(-c2ccc(N3CCN(c4ccc(O)cc4)CC3)cc2)c1=O` (stereo unspecified), the Potency is reported as inconclusive: 8.2 µM [falling, partial curve]. With `O=C(COc1cccc(NC(=O)c2ccccc2)c1)c1ccccc1` the Potency was active: 20.6 µM. For `COc1ccc(NC(=O)CC2SC(N3CCOCC3)=NC2=O)cc1OC` (stereo unspecified), the Potency was active: 14.6 µM. For `O=C(Nc1ccc(F)cc1)N1CCCN(c2ccc(C(F)(F)F)cn2)CC1`, the Potency was inconclusive: 14.6 µM [falling, single point]. In the case of `Cc1ccccc1C(=O)Nc1ccc(Br)cn1`, the Potency is reported as inconclusive: 1.46 µM [activator, partial curve]. In the case of `COc1ccc(S(=O)(=O)N2CCCCCC2)cc1C(=O)Nc1cc(C)ccn1`, the “activity change, negative = inhibition” value is reported as inactive: 12.5%. For `COc1ccc(NC(=O)C2CCCN(c3ncccn3)C2)cc1` (stereo unspecified), the Potency was inconclusive: 4.61 µM [activator, full curve, poor fit]. With `CC(C)=CC(=O)Nc1nc2ccc([N+](=O)[O-])cc2s1` the Potency was inconclusive: 11.6 µM [activator, partial curve]. In the case of `CN(CCOc1ccc(Cl)cc1)C(=O)c1ccc(S(=O)(=O)N2CCOCC2)cc1`, the “activity change, negative = inhibition” value is reported as inactive: -9.34%. For `Cc1cccc(NC(=O)COc2ccc3c(c2)CCC3)n1`, the Potency was inconclusive: 5.8 µM [activator, full curve]. In the case of `CCCN1C(=O)C(NC(=O)c2ccccc2OC)(C(F)(F)F)C(C(=O)OC)=C1C` (stereo unspecified), the “activity change, negative = inhibition” value is reported as inactive: -2.27%. In the case of `CC(C)CC(=O)NC(=S)Nc1nc(-c2cccc3ccccc23)cs1`, the Potency is reported as active: 25.9 µM. In the case of `CCOC(=O)c1cc(-c2ccccc2)n(CCC(=O)N2CCN(c3ccc(OC)cc3)CC2)c1C`, the Potency is reported as inconclusive: 16.4 µM [falling, partial curve]. For `N#C/C(=C\c1c(F)cccc1Cl)c1nn(-c2ccccc2)c(-n2cccc2)c1C#N`, the Potency was inconclusive: 29.1 µM [falling, single point]. With `Cc1ccccc1C(=O)NC(=S)Nc1ccc(S(=O)(=O)N2CCOCC2)cc1` the Potency was active: 13 µM. With `Cc1ccc(CNc2nc3c(S(=O)(=O)c4ccccc4)nnn3c3ccsc23)cc1` the Potency was inconclusive: 29.1 µM [activator, single point]. With `C/C(=N/NS(=O)(=O)c1ccc(Cl)cc1)c1ccncc1` the “activity change, negative = inhibition” value was inactive: -3.66%. For `CCC(=O)Nc1ccc(NC(=O)c2ccc3c(c2)OCO3)cc1`, the Potency was inconclusive: 8.2 µM [falling, partial curve, poor fit]. In the case of `COc1ccc(N2C(=O)C(CC(=O)Nc3ccccc3)N(Cc3ccc4c(c3)OCO4)C2=O)cc1` (stereo unspecified), the Potency is reported as inconclusive: 0.184 µM [falling, full curve, poor fit]. With `Cc1ccsc1C(=O)N1CCN(S(=O)(=O)c2cccs2)CC1` the “activity change, negative = inhibition” value was inactive: 0.625%. With `CCOC(=O)C(=CNc1ccc2c(c1)c1ccccc1n2CC)C(=O)OCC` the Potency was inconclusive: 20.6 µM [falling, partial curve, poor fit]. In the case of `Fc1ccc(NC(=S)NN=C2CCCCCC2)cc1`, the Potency is reported as inconclusive: 14.6 µM [activator, partial curve]. In the case of `O=C1CC(c2ccc(Cl)cc2)n2nc(N3C(=O)c4ccccc4C3=O)nc2N1` (stereo unspecified), the Potency is reported as inconclusive: 0.0065 µM [activator, full curve, poor fit]. In the case of `O=C(N/N=C/c1cccc(NC(=O)c2ccc(Cl)cc2)c1)c1cccc(O)c1`, the Potency is reported as inconclusive: 3.66 µM [activator, partial curve, poor fit]. In the case of `COc1ccc(NS(=O)(=O)c2ccc3oc(SCC(N)=O)nc3c2)cc1`, the Potency is reported as active: 23.1 µM. For `CCCCCn1c(N2CCC(Cc3ccccc3)CC2)nc2c1c(=O)[nH]c(=O)n2C`, the Potency was active: 23.1 µM. For `Cc1cc(Br)ccc1NC(=O)c1cc2c(s1)-c1ccccc1SC2`, the Potency was inconclusive: 13 µM [falling, single point]. In the case of `NC(=O)COC(=O)CCCSc1nc2ccccc2s1`, the Potency is reported as inconclusive: 16.4 µM [falling, partial curve, poor fit]. In the case of `COc1ccc(CN(C)C(=O)c2cc(-c3ccc(C)cc3C)nc3ccccc23)c(OC)c1OC`, the Potency is reported as inconclusive: 25.9 µM [falling, single point]. With `CC(C)(C)c1ccc(-c2nc(C=O)c3ccccn23)cc1` the Potency was inconclusive: 16.4 µM [activator, single point]. In the case of `Cc1ccc(C(=O)Cn2c(C(=O)O)cc3ccccc32)cc1`, the Potency is reported as inconclusive: 7.31 µM [activator, partial curve, poor fit]. In the case of `O=C(CC12CC3CC(CC(Br)(C3)C1)C2)OCCN1CCCCC1`, the Potency is reported as inconclusive: 29.1 µM [activator, single point]. In the case of `COc1cc(C(=O)NCC(c2ccco2)N(C)C)cc(OC)c1OC` (stereo unspecified), the Potency is reported as inconclusive: 13 µM [falling, single point]. With `COc1cccc(NC(=O)COC(=O)C2CC3CCCC(C2)C3=O)c1` (stereo unspecified) the Potency was inconclusive: 18.4 µM [falling, single point]. With `O=C(NN1C(=O)C2C(c3ccccc3)C=CC(c3ccccc3)C2C1=O)c1ccccc1` (stereo unspecified) the “activity change, negative = inhibition” value was inactive: -21.9%. In the case of `COc1ccc(NS(=O)(=O)c2nnc(NC(=O)c3ccccc3F)s2)cc1`, the Potency is reported as inconclusive: 4.11 µM [activator, full curve, poor fit]. For `COc1ccc(C(=O)NCCc2ccc(Cl)cc2)cc1S(=O)(=O)N1CCCCC1C` (stereo unspecified), the Potency was active: 16.4 µM.
